# Primary screen of a compound library

Protein sequences, listed by entry. Tags and fused reporters are not part of them.
UniProt E9BF75, entry or part of it: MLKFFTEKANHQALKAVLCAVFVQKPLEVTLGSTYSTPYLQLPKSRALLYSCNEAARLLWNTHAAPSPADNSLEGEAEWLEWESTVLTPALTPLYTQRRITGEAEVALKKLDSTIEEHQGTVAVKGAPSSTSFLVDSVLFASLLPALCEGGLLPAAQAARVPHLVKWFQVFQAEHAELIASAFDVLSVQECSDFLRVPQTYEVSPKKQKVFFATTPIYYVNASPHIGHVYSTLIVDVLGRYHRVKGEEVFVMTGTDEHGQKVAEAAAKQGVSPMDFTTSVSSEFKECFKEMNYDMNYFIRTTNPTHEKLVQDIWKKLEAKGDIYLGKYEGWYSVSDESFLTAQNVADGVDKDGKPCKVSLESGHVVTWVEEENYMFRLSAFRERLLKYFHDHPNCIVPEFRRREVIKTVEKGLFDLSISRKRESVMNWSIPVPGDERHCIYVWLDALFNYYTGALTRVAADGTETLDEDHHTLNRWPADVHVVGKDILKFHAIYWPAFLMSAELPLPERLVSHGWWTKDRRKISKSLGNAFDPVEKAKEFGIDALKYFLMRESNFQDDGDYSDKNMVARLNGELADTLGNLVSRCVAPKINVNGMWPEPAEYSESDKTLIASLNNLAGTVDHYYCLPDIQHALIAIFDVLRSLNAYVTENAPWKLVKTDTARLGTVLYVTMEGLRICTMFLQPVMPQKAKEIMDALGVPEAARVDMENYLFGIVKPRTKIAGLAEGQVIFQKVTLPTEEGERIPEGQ

LdMetRS: 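Methionyl-tRNA synthetase (putative), Leishmania donovani (UniProt E9BF75). Primary screen of methionyl-tRNA synthetase; the read-out is not stated. The test concentration is not given. The values are filed as inhibition. Of about 68,000 compounds tested this way, about 24 (0.035%) reached 50% or more in at least one test.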
Mtb heat-shock: 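Assay on Mycobacterium tuberculosis, filed only as a heat shock assay from Cornell; the read-out is not stated. The concentration is filed as 10 mM, unlikely as a test dose, so the dose is not known. The record gives no direction; compounds that gave an IC50 in retests scored well above the rest, so higher reads as stronger inhibition. Size under these conditions: about 69,000 compounds, about 930 of them at 50% or above in at least one test.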

Results are percentages, as filed. How 0% and 100% were set is not recorded. Most values in the screen are low, and negative values occur. Compounds were drawn at random from those tested, without regard to their results. A dash means the value is not listed here; it may have been measured.

SMILES | LdMetRS | Mtb heat-shock
O=C(COCC1CC1)Nc1ccn(Cc2cccc3cccnc23)n1 | 8.681% | 15.21%
Cc1nn(C)c2nc(NC3CCNCC3)sc12 | 18.54% | 4.071%
CN1C(Cn2cccn2)C[C@@H]2CN(Cc3cccnc3)CC[C@@H]21 (some centres not stated) | -0.6623% | -
COc1ccc(CCN2CC(NCc3ncc[nH]3)CC2=O)cc1 (configuration not stated) | 9.719% | 8.726%
CN(Cc1ccncc1)C(=O)NCc1cn(-c2ccccc2)nn1 | 10.68% | -31.88%
CCC(NC(=O)NC1CCN(S(C)(=O)=O)CC1)c1cccs1 (configuration not stated) | 9.422% | 0.9849%
COCC(c1cccc(C(F)(F)F)c1)N(C)C(=O)c1ccncc1 (configuration not stated) | 10.2% | -13.32%
c1cncc(C(Cn2cnnc2)N2CCOCC2)c1 (configuration not stated) | 11.5% | 0.7327%
Cc1cnc(CN(C)C2CCN(CCc3cnn(C)c3)C2)o1 (configuration not stated) | 16.08% | 1.873%
COc1cccc(C(c2c(C)n[nH]c2O)c2c(C)n[nH]c2O)c1OC | 13.94% | -2.382%
CN(C)CCN1CC2(CCCN(c3ncc(Cl)cc3F)C2)CCC1=O (configuration not stated) | 16.33% | -28.16%
CN(Cc1cnccn1)C(=O)Nc1cc(F)cc(N2CCCC2)c1 | 16.94% | -8.823%
Cc1noc(C)c1CNC(=O)c1ccc(NC2CC2)nc1 | 14.17% | -26.23%
Cc1nn(C)c(C)c1CC(=O)NCc1ccnc(N2CCOCC2)c1 | 16.91% | -7.611%
O=C(c1ccc[nH]1)N1CCCn2c(CN3CCCCC3)nnc2C1 | 19.12% | 16.28%
Cc1ccsc1CNCc1c(C(C)C)nn(C)c1N1CCOCC1 | 17.46% | -1.138%
Cn1c(CO)cnc1SC1CCCN(c2ccccc2F)C1=O (configuration not stated) | 3.509% | -29.02%
CC1CCN(CCCNC(=O)C2CCCCC2)CC1 | 0.2717% | -27.61%
Cc1cc(C)n(C2CCCN(C(=O)c3ccc(N(C)C)nn3)C2)n1 (configuration not stated) | 16.62% | -2.546%
CN(C)CCN1C(=O)CCCC12CCCN(C(=O)c1cc[nH]n1)C2.O=C(O)C(F)(F)F (configuration not stated) | - | 9.731%
COCCCNC(=O)c1cc(C(C)C)nc(N2CCCCCC2)n1 | -17.34% | -13.84%
c1ccc(C2CCCN2Cc2nc(-c3cnccn3)no2)nc1 (configuration not stated) | - | 12.1%
c1cncc(CN2CCCn3nnc(COCC4CC4)c3C2)c1 | 16.48% | -
O=C(C1CC(F)(F)C1)N1C[C@@H]2CN(Cc3ccsc3)CCO[C@@H]2C1 | 12.09% | -
O=C(NCC1(O)CCSC1)c1ccn(-c2ccccc2F)n1 (configuration not stated) | 14.78% | 0.4239%
CSCc1noc(CNC(=O)C2CCN(C3CCCCC3)CC2)n1 | 11.17% | -11.14%
CN(Cc1cccnc1)C[C@H]1OC[C@@H]2CCN(c3ncccn3)C[C@@H]21 | 15.69% | -
CS(=O)(=O)Nc1ccn(Cc2ccc(Br)cc2)n1 | -17.84% | 8.007%
NC(=O)c1c(SCCN2CCCCC2)sc2c(O)cc(=O)[nH]c12 | 20.33% | 17.73%
O=C(NCC1CC1)C1CN(c2ncccn2)Cc2ccnn2C1 (configuration not stated) | 6.849% | -
COCCN1CCCC(c2ncc(C(=O)N(C)C)c(C)n2)C1 (configuration not stated) | 13.92% | -18.89%
O=C(O)C[C@@H]1CCN(C(=O)c2cccs2)C[C@@H]1CCN1CCCCC1 | 11.54% | -13.47%
CCN1CCc2cc(-c3cncn3CC(=O)NC(C)(C)C)ccc21 | 23.87% | -
Cc1csc(N2CCCN(C(=O)Cc3ccc(C)s3)CC2)n1 | 15.64% | -11.96%
CCc1cc(C(=O)N2CC[C@@H](c3ccc4c(c3)OCO4)[C@H](O)C2)ccn1 | 3.75% | -19.64%
CC(=O)NC(c1cc(F)ccc1F)C1CC1 (configuration not stated) | 18.09% | 15.91%
CN(C)CC1(O)CCCN(c2ccnc3c(C(F)(F)F)cccc23)C1 (configuration not stated) | 14.37% | -9.43%
Cc1ccc(N2CCC(N3C[C@@H](CN(C)C)[C@@H](CO)C3)CC2)cc1 | 8.403% | -10.07%
CCC(C(=O)NCc1ccn(-c2ccc(F)cc2)n1)N1CCCC1=O (configuration not stated) | -3.621% | -18.65%
CCc1nc(C2CCCN2Cc2ccn(C)c(=O)c2)no1 (configuration not stated) | 19.7% | -1.428%
CC(C)N(C)Cc1nnc2n1CCN(CC1CC1)CC2 | 8.651% | -
Cc1ccc(-c2nc(CNC3CCc4ncnn4C3)co2)c(C)c1 (configuration not stated) | 10.12% | 5.916%
Cc1c[nH]c(CN2CCCCC2CCN(C)C)c(C)c1=O (configuration not stated) | 12.57% | 10.77%
Cc1ccc(C(=O)NS(C)(=O)=O)cc1-n1cccc1 | 5.96% | -2.257%
Cc1ccc(C2CSCCN2C(=O)c2ccsc2)o1 (configuration not stated) | 16.73% | -0.07301%
N#CCCSc1nnc(Cc2ccccc2F)o1 | 13.36% | -27.55%
Cn1ncc(N2CCOC(CCNC(=O)NC(C)(C)C)C2)cc1=O (configuration not stated) | 19.2% | -32.94%
CC(=O)c1c(O)n(C)c2ccc(F)cc12 | 13.68% | 17.09%
Cc1cc(CN2CCN(c3ccc4nncn4n3)CC2)no1 | 21.37% | -1.458%
Cc1cc(C)n(CC2CN(CC(=O)Nc3nncs3)CCO2)n1 (configuration not stated) | 12.55% | -5.068%
c1ccc(-c2nc(CCNc3nnc(C4CCC4)o3)no2)cc1 | 10.78% | 2.24%
CCc1cnc(N2CCC(=O)N(CC3CC3)C(C(C)C)C2)nc1 (configuration not stated) | 7.609% | -19.72%
CC(C)N1CCCc2sc(C(=O)NC3CC3)nc21 | 13.01% | 1.481%
Cc1cc(I)cnc1NC(=O)C(C)(C)C | -1.95% | -20.32%
[H][C@@]12CCN(C(=O)CCc3ccccc3Cl)C[C@]1(COC)CCO2 | - | -24.21%
Cc1noc(C)c1CN1CCN(Cc2nccn2C)C(C)C1 (configuration not stated) | 8.92% | 6.083%
CN1CCc2ncc(CNc3cc(N(C)C)ncn3)n2CC1.O=C(O)C(F)(F)F | - | -4.944%
CN(C)c1cc(C2CCCNC2)ccn1 (configuration not stated) | 10.31% | -
CC(=O)N1CC2(CCNCC2)c2cc(Cl)ccc21 | 21.47% | -
CN(CC(=O)N1CCCC1c1cnn(C)c1)c1ccc(Cl)cn1 (configuration not stated) | 11.81% | 3.499%
COCCO[C@H]1CCN(C(=O)c2cccnc2)[C@H]1Cc1cnn(C)c1 | 17.37% | -
CCS(=O)(=O)N1Cc2ccccc2CC1C(=O)OCc1cc(C)no1 (configuration not stated) | 8.13% | -18.31%
CNC(=O)N1Cc2cc(F)ccc2C2(CCN(C)CC2)C1 | 5.072% | -
O=C1NC2(CCN(Cc3cccnc3)CC2)CC1c1cccnc1 (configuration not stated) | 5.229% | -
COCCC1(C(=O)O)CCCN(c2cc(C)c3ccccc3n2)C1 (configuration not stated) | 13.94% | 14.11%
CCNC(=O)[C@@H]1C[C@@H](NC(=O)c2ccsc2)CN1CCCSC | 14.11% | -4.074%
CC(C)c1ncc2c(n1)CN(CC1CCCCO1)CC2 (configuration not stated) | 12.63% | 11.17%
O=C(O)C(F)(F)F.O=C(O)C(F)(F)F.c1cncc(COCc2nnn3c2CN(Cc2ccsc2)CC3)c1 | - | -26.71%
O=C(NCCc1nnc2n1CCC2)c1ccccc1OC1CCCC1 | 13.98% | -15.16%
O=S(=O)(Cc1ccccc1)NCCc1nnc2n1CCC2 | 15.16% | 18.1%
Cc1nc(CN2CCc3nn(C(C)C)c(=O)cc3C2)oc1C | 4.724% | 5.444%
O=C(CC1CC1)NC[C@]12COC[C@H]1CN(c1ncc(F)cn1)C2 | 7.343% | -
O=C1NCC2(CCCN(C(=O)Nc3ccc4occc4c3)CC2)O1 (configuration not stated) | 6.863% | -6.305%
CC(=O)N1CC(Cc2nccc3ccn(C)c23)C1 | 4.53% | -4.449%
COc1cccc(CN2CCC3(CC2)CCN(c2ncc(F)cn2)C3)c1 | 14.88% | -

The last 9 entries again:

| SMILES | LdMetRS | Mtb heat-shock |
|---|---|---|
| `CC(C)c1ncc2c(n1)CN(CC1CCCCO1)CC2` (configuration not stated) | 12.63% | 11.17% |
| `O=C(O)C(F)(F)F.O=C(O)C(F)(F)F.c1cncc(COCc2nnn3c2CN(Cc2ccsc2)CC3)c1` | - | -26.71% |
| `O=C(NCCc1nnc2n1CCC2)c1ccccc1OC1CCCC1` | 13.98% | -15.16% |
| `O=S(=O)(Cc1ccccc1)NCCc1nnc2n1CCC2` | 15.16% | 18.1% |
| `Cc1nc(CN2CCc3nn(C(C)C)c(=O)cc3C2)oc1C` | 4.724% | 5.444% |
| `O=C(CC1CC1)NC[C@]12COC[C@H]1CN(c1ncc(F)cn1)C2` | 7.343% | - |
| `O=C1NCC2(CCCN(C(=O)Nc3ccc4occc4c3)CC2)O1` (configuration not stated) | 6.863% | -6.305% |
| `CC(=O)N1CC(Cc2nccc3ccn(C)c23)C1` | 4.53% | -4.449% |
| `COc1cccc(CN2CCC3(CC2)CCN(c2ncc(F)cn2)C3)c1` | 14.88% | - |

From ChEMBL document CHEMBL3988442, “University of Dundee, Small-Polar-MMV Screening Library” (2021).